Laboratory results: patent US20070093460A1, “Methods of using selective 11beta-HSD inhibitors to treat gluocorticoid associated states” (priority 2005, published 2007)

Amino acid sequences for entries named in this document (tags omitted). A change or cut given only in a name is not applied to a line headed by its entry.
UniProt P16232: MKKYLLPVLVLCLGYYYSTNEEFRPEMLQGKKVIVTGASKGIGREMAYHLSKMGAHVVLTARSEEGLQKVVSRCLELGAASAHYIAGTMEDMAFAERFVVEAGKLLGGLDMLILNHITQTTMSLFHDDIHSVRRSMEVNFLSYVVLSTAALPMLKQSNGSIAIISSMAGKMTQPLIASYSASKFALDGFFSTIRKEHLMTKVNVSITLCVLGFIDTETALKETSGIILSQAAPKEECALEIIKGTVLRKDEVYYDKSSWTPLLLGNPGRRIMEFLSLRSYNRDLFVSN

Key:
11β-HSD1 Dehydrogenase = 11β-HSD1 Dehydrogenase (Rattus norvegicus, UniProt P16232); assay: 11β-HSD1 dehydrogenase assay in rat Leydig cell homogenates; type: biochemical; parameters: Freshly prepared rat Leydig cell homogenates were chosen since they provide a rich and reliable source of both 11β-HSD1 dehydrogenase and reductase; from tissue; host or cells: rat testicular Leydig cells, homogenate;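 further: tritiated corticosterone conversion by 11β-HSD1 dehydrogenase in Leydig homogenates with 3 mM NADP at pH 8.4, 37 °C for 10 min, products resolved by HPLC, inhibition relative to uninhibited enzyme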
11β-HSD2 = molecular target: T1, 11β-HSD2 (Ovis aries, UniProt P50168); assay: 11β-HSD2 enzyme activity in sheep kidney microsomes; type: biochemical; details: for inhibitors of 11β-HSD2 (summary in words): summary of the screening
T1 construct: incubating sheep kidney microsomal fraction (6.5 μg protein) with 50 nM corticosterone; from tissue; host or cells: sheep kidney microsomal fraction
T1 sequence (P50168 1-427): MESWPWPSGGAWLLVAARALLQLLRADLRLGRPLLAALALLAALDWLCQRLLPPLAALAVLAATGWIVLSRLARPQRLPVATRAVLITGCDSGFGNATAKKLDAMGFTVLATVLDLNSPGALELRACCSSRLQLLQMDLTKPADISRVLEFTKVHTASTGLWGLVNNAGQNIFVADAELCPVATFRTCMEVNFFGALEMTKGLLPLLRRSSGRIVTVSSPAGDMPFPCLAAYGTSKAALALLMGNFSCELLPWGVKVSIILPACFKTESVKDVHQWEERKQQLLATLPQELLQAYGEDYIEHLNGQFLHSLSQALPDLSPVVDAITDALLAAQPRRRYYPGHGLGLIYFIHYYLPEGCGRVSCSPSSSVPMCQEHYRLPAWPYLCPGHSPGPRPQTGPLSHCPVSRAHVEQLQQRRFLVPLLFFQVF
Text: The enzymatic reaction was termninated by addition of methanol and synthesis of 11-dehydro-corticosterone was quantitated by HPLC as described above.

11β-HSD1 Reductase = 11β-HSD1 Reductase (Rattus norvegicus, UniProt P16232); assay: 11β-HSD1 reductase assay in rat Leydig cell homogenates; details: for inhibitors of 11β-HSD1 reductase (summary in words): summary of the screening;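 on all read-outs here: rat Leydig cell homogenate incubated 20 min at 37 °C, pH 7.4, with tritiated 11-dehydro-corticosterone and 3 mM NADPH, product measured by HPLC, inhibition from triplicate dose–response curves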
[1] = listed as 11-keto-allopregnanolone

| SMILES | IC50 (11β-HSD1 Dehydrogenase) | Leydig Cell 11β-HSDl Dehydrogenase [S] = 600 nM (11β-HSD1 Dehydrogenase; rat Leydig cell homogenates, 600 nM corticosterone, progesterone and androgen derivatives) | IC50 (11β-HSD2) | inhibitors of 11β-HSD2 (summary in words) (11β-HSD2; […]) | inhibitors of 11β-HSD2 (summary in words) (11β-HSD2; [1]) | IC50 (11β-HSD1 Reductase) | inhibitors of 11β-HSD1 reductase (summary in words) (11β-HSD1 Reductase) | inhibitors of 11β-HSD1 reductase (summary in words) (11β-HSD1 Reductase; [1]) | Sheep kidney 11β-HSD2 [S] = 50 nM (11β-HSD2; sheep kidney microsomes, corticosterone substrate, progesterone and androgen derivatives) |
| --- | --- | --- | --- | --- | --- | --- | --- | --- | --- |
| CC(=O)[C@H]1CC[C@H]2[C@@H]3CC[C@@H]4C[C@H](O)CC[C@]4(C)[C@@H]3C(=O)C[C@]12C [11-Keto-allopregnanolone, 5α-Pregnan-3α-ol-11,20-dione] | > 100 µM | inactive | 1.5 µM | high potency | potent inhibitors | 0.8 µM | potent inhibitors | high potency | – |
| CC(=O)[C@H]1CC[C@H]2[C@@H]3CC[C@@H]4C[C@H](O)CC[C@]4(C)[C@H]3C(=O)C[C@]12C [11-Keto-pregnanolone, 5β-Pregnan-3α-ol-11,20-dione] | > 100 µM | – | > 10 µM | – | – | 65 µM | – | – | inactive |
